From PubChem BioAssay AID248 (DTP/NCI, 2004)
The list shows only some results of the screen, not a fair sample: it is rich in T/C values a quarter to a half above the control, in often repeated tests (any T/C) and in doses without a T/C. Other doses and runs of a compound stand elsewhere. T/C gives the treated animals as a percentage of the vehicle group. Some doses have a count of surviving animals in place of a T/C: the source files T/C as zero there, which appears to mark a toxic dose or a test without result, not a measured value. Some doses without a T/C left all or most animals alive at the check, yet need not have been tolerated: survival well below the control is almost never listed, so the zero probably covers shortened survival too. Survivors were counted at the toxicity check, usually on the fifth day, unless a day is given; later deaths do not show. Schedules are NCI's codes, taken here to give the interval after Q, in days (D) or hours (H), and the number of doses after X. Some schedules carry Z or #; the key to these is not given. Some entries were tested several times; the results are listed from low to high. Where survival is the endpoint, the PubChem record calls one and a half times the control and up active, and a quarter to a half above the control has no call in these data; cut-offs in other NCI protocols can differ.

Tested on: L1210 leukemia ip in BDF1 mice, survival T/C
Assay: NCI In Vivo Anticancer Drug Screen. Data for tumor model L1210 Leukemia (intraperitoneal) in B6D2F1 (BDF1) mice
Conditions: T/C endpoint: mean survival time, higher T/C = longer survival
[1] = dose: 400.0 mg/kg/injection, schedule: Q01DX009 (ip), vehicle: saline
[2] = dose: 200.0 mg/kg/injection, schedule: Q04DX003 (ip), vehicle: Klucel (hydroxypropylcellulose) (HPC)
[3] = dose: 400.0 mg/kg/injection, schedule: Q04DX003 (ip), vehicle: Klucel (hydroxypropylcellulose) (HPC)
[4] = dose: 400.0 mg/kg/injection, schedule: Q04DX003 (ip), vehicle: saline
[5] = dose: 200.0 mg/kg/injection, schedule: Q01DX009 (ip), vehicle: saline with Tween-80
[6] = dose: 200.0 mg/kg/injection, schedule: Q01DX009 (ip), vehicle: carboxymethylcellulose (CMC)
[7] = dose: 200.0 mg/kg/injection, schedule: Q01DX009 (ip), vehicle: saline

Q: C=CCc1cn(C2CC(O)C(CO)O2)c(=O)[nH]c1=O (configuration not stated) was tested. Which T/C (dose: 200.0 mg/kg/injection, schedule: Q01DX001 (ip), vehicle: saline, evaluated on day 30) did it give?
A: 96 and 101 % of control

Q: What about the T/C (dose: 200.0 mg/kg/injection, schedule: Q01DX001 (ip), vehicle: saline, run until all animals had died) of the same molecule?
A: 98 and 104 % of control

Q: And the T/C (dose: 400.0 mg/kg/injection, schedule: Q01DX001 (ip), vehicle: saline, evaluated on day 30)?
A: 101 and 104 % of control

Q: And the T/C (dose: 400.0 mg/kg/injection, schedule: Q01DX001 (ip), vehicle: saline, run until all animals had died)?
A: 103 and 106 % of control

Q: And the T/C [1]?
A: 126 and 136 % of control

Q: And the T/C (dose: 800.0 mg/kg/injection, schedule: Q01DX009 (ip), vehicle: saline)?
A: 136 % of control

Q: What about the T/C (dose: 1600.0 mg/kg/injection, schedule: Q01DX009 (ip), vehicle: saline) of the same molecule?
A: 125 % of control

Q: How did the T/C (dose: 30.0 mg/kg/injection, schedule: Q01DX Z (ip), vehicle: carboxymethylcellulose (CMC)) turn out when CS(=O)(=O)c1nc(N)nc2nc[nH]c12 was run?
A: 144 % of control

Q: And the survivor count (dose: 120.0 mg/kg/injection, schedule: Q01DX Z (ip), vehicle: carboxymethylcellulose (CMC))?
A: 0 of 6

Q: And the survivor count (dose: 150.0 mg/kg/injection, schedule: Q01DX Z (ip), vehicle: methylcellulose (MC))?
A: 2 of 6

Q: What about the survivor count (dose: 240.0 mg/kg/injection, schedule: Q01DX Z (ip), vehicle: carboxymethylcellulose (CMC)) of the same molecule?
A: 0 of 6

Q: And the survivor count (dose: 250.0 mg/kg/injection, schedule: Q01DX Z (ip), vehicle: methylcellulose (MC))?
A: 0 of 6

Q: What about the survivor count (dose: 400.0 mg/kg/injection, schedule: Q01DX001 (ip), vehicle: carboxymethylcellulose (CMC)) of the same molecule?
A: 0 of 6

Q: NC(=Nc1ccc(N)cc1)c1ccc(C(N)=Nc2ccc(N)cc2)cc1 was tested. Which survivor count (dose: 147.0 mg/kg/injection, schedule: Q01DX015 (ip), vehicle: water) did it give?
A: 0 of 6

Q: And the survivor count (dose: 294.0 mg/kg/injection, schedule: Q01DX015 (ip), vehicle: water)?
A: 0 of 6

Q: With N#Cc1ccc(NC(=O)COc2cccc(Cl)c2)cc1 as the molecule, how does the survivor count (dose: 75.0 mg/kg/injection, schedule: Q01DX001 (ip), vehicle: saline with Tween-80) read?
A: 6 of 6

Q: With CC(=O)NC1C(OC(C)=O)OC(COC(c2ccccc2)(c2ccccc2)c2ccccc2)C(O)C1OC(C)=O (configuration not stated) as the molecule, how does the survivor count (dose: 100.0 mg/kg/injection, schedule: Q04DX003 (ip), vehicle: saline with Tween-80) read?
A: 0 of 3 and 3 of 3

Q: Which survivor count (dose: 100.0 mg/kg/injection, schedule: Q04DX003 (ip), vehicle: Klucel (hydroxypropylcellulose) (HPC)) does the source give for O=C(NCCCCN1CC1)C(=O)Nc1cccnc1 here?
A: 1 of 6

Q: What about the survivor count [2] of the same molecule?
A: 0 of 6

Q: What about the survivor count [3] of the same molecule?
A: 0 of 6

Q: With COc1cc([N+](=O)[O-])ccc1C#N as the molecule, how does the survivor count [2] read?
A: 5 of 6

Q: For CC(=O)NC(CO)C(O)C(O)C(O)CO (configuration not stated), which T/C (dose: 400.0 mg/kg/injection, schedule: Q04DX002 (ip), vehicle: saline) is on record?
A: 125 % of control

Q: For CCCCCCC(=O)N1CCCC(C)C1 (configuration not stated), which survivor count (dose: 400.0 mg/kg/injection, schedule: Q04DX002 (ip), vehicle: Klucel (hydroxypropylcellulose) (HPC)) is on record?
A: 1 of 3

Q: Which survivor count (dose: 50.0 mg/kg/injection, schedule: Q01DX009 (ip), vehicle: saline) does the source give for C[N+](C)(C)CCCC1C2CCC(C2)C1C[N+](C)(C)C (configuration not stated) here?
A: 0 of 6

Q: What about the survivor count (dose: 50.0 mg/kg/injection, schedule: Q04DX003 (ip), vehicle: saline) of the same molecule?
A: 1 of 6

Q: And the survivor count (dose: 100.0 mg/kg/injection, schedule: Q04DX003 (ip), vehicle: saline)?
A: 0 of 6

Q: And the survivor count (dose: 200.0 mg/kg/injection, schedule: Q04DX003 (ip), vehicle: saline)?
A: 0 of 6

Q: And the survivor count [4]?
A: 0 of 6

Q: Which results are given for CC(=O)CC(=O)CC(O)(C(F)(F)F)C(F)(F)F?
A: survivor count [5]: 2 of 6; survivor count (dose: 400.0 mg/kg/injection, schedule: Q01DX009 (ip), vehicle: saline with Tween-80): 0 of 6

Q: Which survivor count (dose: 400.0 mg/kg/injection, schedule: Q04DX002 (ip), vehicle: other) does the source give for C=CCCCCCCCCC(=O)O here?
A: 1 of 3

Q: How did the survivor count (dose: 100.0 mg/kg/injection, schedule: Q04DX003 (ip), vehicle: acetone) turn out when CCc1nc2c(c(=O)[nH]1)C(c1ccc(Cl)cc1)C(C)(C)O2 (configuration not stated) was run?
A: 6 of 6

Q: How did the survivor count [2] turn out when CS(=O)(=O)OCCN(CCOS(C)(=O)=O)c1ccc(C=Nc2cc(Cl)c(O)c(Cl)c2)cc1 was run?
A: 6 of 6

Q: What about the survivor count [3] of the same molecule?
A: 5 of 6

Q: Which results are given for c1ccc2c(c1)OCCOCCOCCOCCO2?
A: survivor count (dose: 100.0 mg/kg/injection, schedule: Q04DX002 (ip), vehicle: saline): 1 of 3; survivor count (dose: 200.0 mg/kg/injection, schedule: Q04DX002 (ip), vehicle: saline): 0 of 3

Q: How did the survivor count (dose: 400.0 mg/kg/injection, schedule: Q01DX009 (ip), vehicle: other) turn out when Cc1ccc(S(=O)(=O)Oc2c(Cl)c(Cl)c(Cl)c(Cl)c2Cl)cc1 was run?
A: 6 of 6

Q: For CC1CN(C(=N)C#N)C(C)CN1C(=N)C#N (configuration not stated), which survivor count (dose: 50.0 mg/kg/injection, schedule: Q01DX009 (ip), vehicle: saline with Tween-80) is on record?
A: 6 of 6

Q: And the survivor count [5]?
A: 3 of 6

Q: And the survivor count (dose: 400.0 mg/kg/injection, schedule: Q04DX003 (ip), vehicle: saline with Tween-80)?
A: 4 of 6

Q: How did the survivor count (dose: 100.0 mg/kg/injection, schedule: Q01DX009 (ip), vehicle: carboxymethylcellulose (CMC)) turn out when CC1(C)N=C(N)N=C(N)N1c1ccc(OCC(=O)Nc2ccc(S(=O)(=O)F)cc2)c(Cl)c1 was run?
A: 5 of 6

Q: What about the T/C (dose: 100.0 mg/kg/injection, schedule: Q01DX009 (ip), vehicle: saline) of the same molecule?
A: 133 % of control

Q: And the T/C [6]?
A: 127 % of control

Q: And the survivor count [6]?
A: 0 of 6

Q: And the T/C [7]?
A: 137 % of control

Q: What about the survivor count (dose: 400.0 mg/kg/injection, schedule: Q01DX009 (ip), vehicle: carboxymethylcellulose (CMC)) of the same molecule?
A: 0 of 6

Q: Which results are given for O=S1(=O)CC2=C1/C=C/CCCC2?
A: survivor count (dose: 20.0 mg/kg/injection, schedule: Q01DX001 (ip), vehicle: saline): 3 of 6; survivor count (dose: 20.0 mg/kg/injection, schedule: Q04DX002 (ip), vehicle: Klucel (hydroxypropylcellulose) (HPC)): 3 of 3; survivor count (dose: 40.0 mg/kg/injection, schedule: Q01DX001 (ip), vehicle: saline): 1 of 6; survivor count (dose: 75.0 mg/kg/injection, schedule: Q01DX001 (ip), vehicle: saline): 0 of 6; survivor count (dose: 150.0 mg/kg/injection, schedule: Q01DX001 (ip), vehicle: saline): 0 of 6; survivor count (dose: 300.0 mg/kg/injection, schedule: Q01DX001 (ip), vehicle: saline): 0 of 6

Q: Which survivor count [3] does the source give for CN(C)CCCN=C=NC1CCCCC1 here?
A: 6 of 6

Q: Which results are given for CC[N+](CC)(CCOc1ccc(C(C)(C)CC(C)(C)C)cc1)Cc1ccccc1?
A: survivor count (dose: 2.5 mg/kg/injection, schedule: Q01DX009 (ip), vehicle: saline with Tween-80): 3 of 6; survivor count (dose: 5.0 mg/kg/injection, schedule: Q01DX009 (ip), vehicle: saline with Tween-80): 4 of 6

Q: Which results are given for COc1cc2ccncc2cc1OCc1ccccc1?
A: survivor count [7]: 0 of 6; survivor count [1]: 0 of 6

Q: NNC(=S)Nc1cccc2ccccc12 was tested. Which survivor count (dose: 300.0 mg/kg/injection, schedule: Q01DX001 (ip), vehicle: carboxymethylcellulose (CMC)) did it give?
A: 3 of 6

Q: Which T/C [4] does the source give for CSC1OC(C(NC(=O)N(C)N=O)C(C)O)C(O)C(O)C1O (configuration not stated) here?
A: 139 % of control

Q: For COC(=O)c1ncccc1C(=O)O, which survivor count [5] is on record?
A: 3 of 6

Q: Which results are given for CC(=O)CC(=O)Nc1ccc2ccccc2c1?
A: survivor count (dose: 200.0 mg/kg/injection, schedule: Q01DX009 (ip), vehicle: Klucel (hydroxypropylcellulose) (HPC)): 5 of 6; survivor count (dose: 400.0 mg/kg/injection, schedule: Q01DX009 (ip), vehicle: Klucel (hydroxypropylcellulose) (HPC)): 3 of 6
